Results reported in paper PMC8278077.

Sequences of proteins named here, by UniProt entry; tags and fusion partners are left off.
UniProt P21333: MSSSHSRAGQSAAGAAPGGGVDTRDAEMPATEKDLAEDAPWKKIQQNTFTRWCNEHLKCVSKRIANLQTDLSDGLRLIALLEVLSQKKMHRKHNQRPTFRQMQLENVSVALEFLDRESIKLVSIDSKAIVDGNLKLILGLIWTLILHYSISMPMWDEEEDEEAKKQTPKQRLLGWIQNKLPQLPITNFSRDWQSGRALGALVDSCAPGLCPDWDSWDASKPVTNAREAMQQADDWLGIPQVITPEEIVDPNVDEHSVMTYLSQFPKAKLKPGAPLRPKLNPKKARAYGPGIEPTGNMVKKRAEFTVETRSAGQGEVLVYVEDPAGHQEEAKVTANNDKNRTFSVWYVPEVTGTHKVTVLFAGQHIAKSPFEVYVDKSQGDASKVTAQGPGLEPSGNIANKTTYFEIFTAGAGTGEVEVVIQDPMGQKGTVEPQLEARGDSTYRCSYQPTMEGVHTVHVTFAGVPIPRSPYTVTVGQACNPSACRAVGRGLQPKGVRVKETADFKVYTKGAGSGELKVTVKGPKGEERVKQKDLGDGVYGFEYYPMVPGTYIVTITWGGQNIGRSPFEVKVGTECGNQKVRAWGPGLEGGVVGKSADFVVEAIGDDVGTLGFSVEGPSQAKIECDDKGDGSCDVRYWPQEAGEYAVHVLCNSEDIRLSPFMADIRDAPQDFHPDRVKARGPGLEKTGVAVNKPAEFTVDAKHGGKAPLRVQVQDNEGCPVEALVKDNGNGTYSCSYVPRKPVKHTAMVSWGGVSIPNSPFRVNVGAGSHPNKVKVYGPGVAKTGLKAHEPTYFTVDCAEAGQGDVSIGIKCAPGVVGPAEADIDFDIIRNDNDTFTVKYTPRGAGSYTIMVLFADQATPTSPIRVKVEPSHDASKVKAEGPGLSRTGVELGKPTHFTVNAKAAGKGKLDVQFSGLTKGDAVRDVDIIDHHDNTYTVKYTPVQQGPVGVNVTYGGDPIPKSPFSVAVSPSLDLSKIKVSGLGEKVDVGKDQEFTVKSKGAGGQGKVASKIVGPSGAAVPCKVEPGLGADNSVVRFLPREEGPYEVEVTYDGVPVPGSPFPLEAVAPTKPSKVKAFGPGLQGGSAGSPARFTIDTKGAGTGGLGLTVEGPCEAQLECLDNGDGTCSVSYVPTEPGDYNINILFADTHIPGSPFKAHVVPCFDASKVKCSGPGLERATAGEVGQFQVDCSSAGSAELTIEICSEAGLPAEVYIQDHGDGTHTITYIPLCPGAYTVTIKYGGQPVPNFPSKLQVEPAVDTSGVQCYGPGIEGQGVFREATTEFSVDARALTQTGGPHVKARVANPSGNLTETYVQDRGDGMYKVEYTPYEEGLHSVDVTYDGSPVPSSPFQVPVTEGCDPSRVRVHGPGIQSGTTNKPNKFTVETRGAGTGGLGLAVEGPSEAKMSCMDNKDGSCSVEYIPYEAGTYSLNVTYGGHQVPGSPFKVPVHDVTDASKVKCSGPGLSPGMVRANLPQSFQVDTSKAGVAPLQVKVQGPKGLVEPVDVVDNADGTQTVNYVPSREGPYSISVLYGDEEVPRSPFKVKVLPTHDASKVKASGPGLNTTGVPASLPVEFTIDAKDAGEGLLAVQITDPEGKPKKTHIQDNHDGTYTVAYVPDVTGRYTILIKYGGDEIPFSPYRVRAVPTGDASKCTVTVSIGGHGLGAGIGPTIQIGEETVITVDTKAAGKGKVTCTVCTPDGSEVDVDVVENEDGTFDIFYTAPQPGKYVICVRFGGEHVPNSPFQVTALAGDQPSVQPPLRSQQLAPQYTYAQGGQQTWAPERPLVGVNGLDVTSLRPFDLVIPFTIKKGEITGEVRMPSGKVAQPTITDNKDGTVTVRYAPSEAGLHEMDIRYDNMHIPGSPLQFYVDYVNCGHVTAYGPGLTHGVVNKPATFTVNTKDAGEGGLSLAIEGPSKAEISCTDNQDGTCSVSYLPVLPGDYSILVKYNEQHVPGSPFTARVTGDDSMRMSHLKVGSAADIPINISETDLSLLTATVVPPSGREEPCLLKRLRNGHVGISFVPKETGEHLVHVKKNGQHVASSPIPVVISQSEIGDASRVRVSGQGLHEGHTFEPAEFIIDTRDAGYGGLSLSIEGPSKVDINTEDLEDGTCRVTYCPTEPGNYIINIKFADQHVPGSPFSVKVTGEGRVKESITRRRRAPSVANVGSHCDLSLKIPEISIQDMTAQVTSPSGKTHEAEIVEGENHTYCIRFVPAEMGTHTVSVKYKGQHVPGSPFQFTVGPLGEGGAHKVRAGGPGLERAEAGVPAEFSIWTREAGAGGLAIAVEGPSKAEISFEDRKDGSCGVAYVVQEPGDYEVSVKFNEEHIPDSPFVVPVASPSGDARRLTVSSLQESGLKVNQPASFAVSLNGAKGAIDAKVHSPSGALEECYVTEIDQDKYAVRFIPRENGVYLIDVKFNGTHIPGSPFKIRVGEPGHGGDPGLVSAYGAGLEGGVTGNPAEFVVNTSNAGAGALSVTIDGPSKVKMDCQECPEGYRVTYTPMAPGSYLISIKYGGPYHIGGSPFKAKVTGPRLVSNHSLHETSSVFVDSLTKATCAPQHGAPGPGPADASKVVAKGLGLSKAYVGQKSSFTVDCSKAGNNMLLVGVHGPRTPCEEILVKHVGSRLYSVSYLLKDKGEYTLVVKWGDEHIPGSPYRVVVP

Target: T1, Latexin (LXN), endogenous in HUVECs (human (endogenous in HUVEC)) (UniProt Q9BS40)
T1 sequence: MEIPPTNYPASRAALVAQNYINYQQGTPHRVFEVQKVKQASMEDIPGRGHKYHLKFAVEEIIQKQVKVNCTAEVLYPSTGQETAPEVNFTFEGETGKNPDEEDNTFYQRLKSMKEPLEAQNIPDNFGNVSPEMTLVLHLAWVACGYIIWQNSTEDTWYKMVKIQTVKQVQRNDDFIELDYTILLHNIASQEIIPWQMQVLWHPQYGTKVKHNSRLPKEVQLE
Test: affinity purification with mass spectrometry; HUVEC lysate, immunoprecipitation with anti-LXN antibody, SDS-PAGE, bands excised, trypsin digestion, LC-MS/MS (LTQ)

binding: binds
Substance: Filamin A (FLNA), endogenous in HUVECs (from UniProt P21333 1-2647)

These are yes or no findings as the source states them, for the method shown. In cells and extracts the contact can be indirect. These calls come from enrichment with a bait or labelling near it, and not all partners need be listed.
